Data reported in patent publication US20260274954A1 (published 2026).
Positions count from the first letter of the chain named. These are yes or no findings as the source states them, for the method shown. A result given as binding can be weak or reduced; the word gives no strength.

B1: 2E5 (antibody, V domains shown)
VH: QVQLVQSGAEVKKPGSSVKVSCKASGFTFTTYYISWVRQAPGQGLEYLGYINMGSGGTNYNEKFKGRVTITADKSTSTAYMELSSLRSEDTAVYYCAIIGYFDYWGQGTMVTVSS
VL: DVVMTQSPLSLPVTLGQPASISCRSSQSLLDSDGGTYLYWFQQRPGQSPRRLIYLVSTLGSGVPDRFSGSGSGTDFTLKISRVEAEDVGVYYCMQLTHWPYTFGQGTKLEIK
B2: 2G4 (antibody, V domains shown)
VH: B1 VH
VL: B1 VL with G35S
B3: 2C2 (antibody, V domains shown)
VH: B1 VH
VL: B1 VL with G35A
B4: 1H6 (antibody, V domains shown)
VH: B1 VH with I99L
VL: B1 VL

biological target: cynomolgus PD-1 on activated cynomolgus PBMC (cynomolgus); assay: FACS on activated cynomolgus PBMC

binding, binds:
B1
B2
B3
B4
